Results: paper PMC10724293, “New ruthenium-xanthoxylin complex eliminates colorectal cancer stem cells by targeting the heat shock protein 90 chaperone” (Cell Death & Disease, 2023)

System: MCF-7
Experiment: Alamar blue cytotoxicity assay
Format: cell-based
Details: Homo sapiens, MCF7, 72 h, read-out: IC50 and 95%CI
Description: The Alamar blue assay was used to determine cell viability as previously described. Cells were seeded into 96-well plates at a density of 7 × 10^3 cells per well for adherent cells or 3 × 10^4 cells per well for suspended cells. The drug was added to each well after 24 h of incubation for adherent cells or immediately for suspended cells and incubated for an additional 72 h. […] Each well received 100 µM resazurin (Sigma-Aldrich Co. St. Louis, MO, United States) four (for cell lines) or 24 (for primary culture) h before the end of the incubation. A SpectraMax 190 Microplate Reader (Molecular Devices, Sunnyvale, CA, USA) was used to measure absorbance at 570 and 600 nm.

COc1cccc2c1C(=O)c1c(O)c3c(c(O)c1C2=O)C[C@@](O)(C(=O)CO)C[C@@H]3O[C@H]1C[C@H](N)[C@H](O)[C@H](C)O1 [DOX, Doxorubicin, reference compound]
IC50: 1.76 µM
